Measurements reported in PMC3219591.
These are yes or no findings as the source states them, for the method shown. Binding seen in cells or lysates may run through a third protein. Some results given as binding are weak or reduced against the parent protein; the word gives no strength.

Chains of the proteins cited; added tags and fusions are not shown.
UniProt P01108: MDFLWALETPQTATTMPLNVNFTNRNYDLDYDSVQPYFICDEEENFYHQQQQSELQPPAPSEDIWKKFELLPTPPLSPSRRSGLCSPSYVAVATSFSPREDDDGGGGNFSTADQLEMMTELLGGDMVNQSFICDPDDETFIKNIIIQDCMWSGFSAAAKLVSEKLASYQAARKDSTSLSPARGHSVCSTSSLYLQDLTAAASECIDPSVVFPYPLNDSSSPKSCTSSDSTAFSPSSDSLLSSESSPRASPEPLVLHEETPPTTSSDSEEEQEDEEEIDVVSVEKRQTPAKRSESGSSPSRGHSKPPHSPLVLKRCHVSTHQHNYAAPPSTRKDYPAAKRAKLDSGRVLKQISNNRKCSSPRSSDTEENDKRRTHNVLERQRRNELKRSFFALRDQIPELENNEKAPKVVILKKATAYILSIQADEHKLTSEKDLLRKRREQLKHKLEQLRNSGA
UniProt Q969H0: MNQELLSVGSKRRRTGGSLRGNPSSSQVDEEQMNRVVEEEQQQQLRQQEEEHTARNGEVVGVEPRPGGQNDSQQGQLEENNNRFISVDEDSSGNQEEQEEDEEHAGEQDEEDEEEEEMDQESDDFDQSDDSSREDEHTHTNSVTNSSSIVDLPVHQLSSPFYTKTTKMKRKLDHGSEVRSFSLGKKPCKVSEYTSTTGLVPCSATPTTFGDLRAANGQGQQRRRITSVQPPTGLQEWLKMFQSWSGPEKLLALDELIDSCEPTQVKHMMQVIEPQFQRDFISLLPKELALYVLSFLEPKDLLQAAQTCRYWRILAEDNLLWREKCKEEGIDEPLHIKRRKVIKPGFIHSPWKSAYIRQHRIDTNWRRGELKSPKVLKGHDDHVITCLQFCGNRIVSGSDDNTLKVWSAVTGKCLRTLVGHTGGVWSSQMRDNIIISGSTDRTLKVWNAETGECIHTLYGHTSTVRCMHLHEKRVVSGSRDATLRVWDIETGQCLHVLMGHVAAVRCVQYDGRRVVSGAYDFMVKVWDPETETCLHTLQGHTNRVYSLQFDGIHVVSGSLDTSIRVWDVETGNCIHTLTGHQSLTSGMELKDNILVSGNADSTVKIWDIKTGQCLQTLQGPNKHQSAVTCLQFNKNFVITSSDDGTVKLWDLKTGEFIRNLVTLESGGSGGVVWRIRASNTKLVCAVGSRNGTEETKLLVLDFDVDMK
UniProt P01106: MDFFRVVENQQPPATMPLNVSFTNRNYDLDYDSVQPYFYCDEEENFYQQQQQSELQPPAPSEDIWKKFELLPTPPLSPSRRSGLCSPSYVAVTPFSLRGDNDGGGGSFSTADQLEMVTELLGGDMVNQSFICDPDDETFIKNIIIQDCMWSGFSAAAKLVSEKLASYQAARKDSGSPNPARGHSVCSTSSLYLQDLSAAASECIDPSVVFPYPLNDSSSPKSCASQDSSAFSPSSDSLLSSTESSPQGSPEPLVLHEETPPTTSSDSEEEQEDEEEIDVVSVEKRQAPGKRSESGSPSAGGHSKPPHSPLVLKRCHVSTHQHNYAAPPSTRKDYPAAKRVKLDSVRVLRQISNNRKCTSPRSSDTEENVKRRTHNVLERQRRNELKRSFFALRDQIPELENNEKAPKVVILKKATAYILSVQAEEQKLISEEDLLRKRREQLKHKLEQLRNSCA

B1: murine Pirh2, endogenous in NIH3T3 cells (protein, UniProt Q9CR50 1-261)
chain: MAATAREDGVRNLAQGPRGCEHYDRACLLKAPCCDKLYTCRLCHDTNEDHQLDRFKVKEVQCINCEKLQHAQQTCEDCSTLFGEYYCSICHLFDKDKRQYHCESCGICRIGPKEDFFHCLKCNLCLTTNLRGKHKCIENVSRQNCPICLEDIHTSRVVAHVLPCGHLLHRTCYEEMLKEGYRCPLCMHSALDMTRYWRQLDTEVAQTPMPSEYQNVTVDILCNDCNGRSTVQFHILGMKCKLCDSYNTAQAGGRRVPVDQQ

Tests used:
[1] = biological target: T1, endogenous PIRH2 in RKO cells (human (endogenous in RKO)) (UniProt Q96PM5); assay: co-IP; endogenous proteins, RKO cell lysate; IP with anti-PIRH2 antibody (Santa Cruz FL261), immunoblot
T1 sequence: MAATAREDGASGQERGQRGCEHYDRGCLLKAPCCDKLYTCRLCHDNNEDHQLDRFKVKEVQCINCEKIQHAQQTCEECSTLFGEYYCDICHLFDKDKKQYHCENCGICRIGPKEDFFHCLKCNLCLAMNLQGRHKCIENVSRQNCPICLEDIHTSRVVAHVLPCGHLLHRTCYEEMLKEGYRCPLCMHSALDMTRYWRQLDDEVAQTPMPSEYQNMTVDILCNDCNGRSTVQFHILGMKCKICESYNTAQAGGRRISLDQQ

[2] = biological target: T2, murine Pirh2, endogenous in NIH3T3 cells (mouse (endogenous in NIH3T3)) (UniProt Q9CR50); assay: co-IP; endogenous proteins, non-transfected NIH3T3 lysate; IP with antibodies against murine Pirh2 or murine c-Myc, immunoblot
T2 sequence: B1 chain

[3] = biological target: murine c-Myc, endogenous in NIH3T3 cells (mouse (endogenous in NIH3T3)) (UniProt P01108); assay: as above

| Molecule | binding [1] | further results |
| --- | --- | --- |
| endogenous FBW7 in RKO cells (from UniProt Q969H0 1-707) | no binding | – |
| murine c-Myc, endogenous in NIH3T3 cells (from UniProt P01108 1-454) | – | binding [2]: binds |
| endogenous c-MYC in RKO cells (from UniProt P01106 1-454) | binds | – |
| B1 | – | binding [3]: binds |
